Values of other authors as cited in patent publication US20230381197A1, “COMPOSITIONS FOR NON-SURGICAL PREVENTION OF BOAR TAINT AND […]” (Insigna Inc., priority 2022, published 2023).
At least one compound was matched to its structure with a doubt left.

System: Sertoli cells
Details: neonatal/immature pigs

## C[C@]12CC[C@@H]3c4ccc(O)cc4CC[C@H]3[C@@H]1CC[C@@H]2O [E2, estradiol]
  number of Sertoli cells: significant decrease
